# Measured values reported in the supplement of paper PMC8728848.
# Some of the results follow.
# How the values were obtained:
# Test in all cases: glycan array binding signal (z-score within array); higher = stronger binding
# Details in all cases: glycan notation: IUPAC condensed, linker removed
# [1] = target: Fuc(a1-2)Gal6S(b1-3)GlcNAc
# In short: (§1)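 The binding signal is a Z-score computed within each array. Data were drawn from 3228 arrays in the Consortium for Functional Glycomics database, restricted to those with a known protein sequence. Scores were averaged over arrays of the same protein sequence at different concentrations or buffers, and over linkers, and negative values can be taken as non-binding.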
# [2] = target: Fuc(a1-2)Gal6S(b1-3)GlcNAc6S
# In short: as §1
# [3] = target: Fuc(a1-2)Gal6S(b1-4)Glc
# In short: as §1
# [4] = target: Fuc(a1-2)Gal6S(b1-4)Glc6S
# In short: as §1
# [5] = target: Fuc(a1-2)[Gal(a1-3)]Gal
# In short: as §1
# [6] = target: Fuc(a1-2)[Gal(a1-3)]Gal(b1-3)GalNAc
# In short: as §1
# [7] = target: Fuc(a1-2)[Gal(a1-3)]Gal(b1-3)GalNAc(b1-3)Gal(a1-4)Gal(b1-4)Glc
# In short: as §1
# [8] = target: Fuc(a1-2)[Gal(a1-3)]Gal(b1-3)GlcNAc
# In short: as §1
# [9] = target: Fuc(a1-2)[Gal(a1-3)]Gal(b1-3)GlcNAc(b1-2)Man(a1-3)[Fuc(a1-2)[Gal(a1-3)]Gal(b1-3)GlcNAc(b1-2)Man(a1-6)]Man(b1-4)GlcNAc(b1-4)GlcNAc
# In short: as §1
# [10] = target: Fuc(a1-2)[Gal(a1-3)]Gal(b1-3)GlcNAc(b1-2)Man(a1-3)[Fuc(a1-2)[Gal(a1-3)]Gal(b1-3)GlcNAc(b1-2)Man(a1-6)]Man(b1-4)GlcNAc(b1-4)[Fuc(a1-6)]GlcNAc
# In short: as §1
# [11] = target: Fuc(a1-2)[Gal(a1-3)]Gal(b1-3)GlcNAc(b1-3)GalNAc
# In short: as §1
# [12] = target: Fuc(a1-2)[Gal(a1-3)]Gal(b1-3)GlcNAc(b1-6)GalNAc
# In short: as §1
# [13] = target: Fuc(a1-2)[Gal(a1-3)]Gal(b1-4)Glc
# In short: as §1
# [14] = target: Fuc(a1-2)[Gal(a1-3)]Gal(b1-4)GlcNAc
# In short: as §1
# [15] = target: Fuc(a1-2)[Gal(a1-3)]Gal(b1-4)GlcNAc(b1-2)Man
# In short: as §1
# [16] = target: Fuc(a1-2)[Gal(a1-3)]Gal(b1-4)GlcNAc(b1-2)Man(a1-3)[Fuc(a1-2)[Gal(a1-3)]Gal(b1-4)GlcNAc(b1-2)Man(a1-6)]Man(b1-4)GlcNAc(b1-4)GlcNAc
# In short: as §1
# [17] = target: Fuc(a1-2)[Gal(a1-3)]Gal(b1-4)GlcNAc(b1-2)Man(a1-3)[Fuc(a1-2)[Gal(a1-3)]Gal(b1-4)GlcNAc(b1-2)Man(a1-6)]Man(b1-4)GlcNAc(b1-4)[Fuc(a1-6)]GlcNAc
# In short: as §1
# [18] = target: Fuc(a1-2)[Gal(a1-3)]Gal(b1-4)GlcNAc(b1-3)GalNAc
# In short: as §1
# [19] = target: Fuc(a1-2)[Gal(a1-3)]Gal(b1-4)GlcNAc(b1-3)[Fuc(a1-2)[Gal(a1-3)]Gal(b1-4)GlcNAc(b1-6)]GalNAc
# In short: as §1
# [20] = target: Fuc(a1-2)[Gal(a1-3)]Gal(b1-4)GlcNAc(b1-6)GalNAc
# In short: as §1
# [21] = target: Fuc(a1-2)[Gal(a1-3)]Gal(b1-4)[Fuc(a1-3)]Glc
# In short: as §1
# [22] = target: Fuc(a1-2)[Gal(a1-3)]Gal(b1-4)[Fuc(a1-3)]GlcNAc
# In short: as §1
# [23] = target: Fuc(a1-2)[Gal(a1-3)]Gal(b1-4)[Fuc(a1-3)]GlcNAc(b1-3)GalNAc
# In short: as §1
# [24] = target: Fuc(a1-2)[Gal(a1-4)]Gal(b1-4)GlcNAc
# In short: as §1
# [25] = target: Fuc(a1-2)[GalNAc(a1-3)]Gal
# In short: as §1
# [26] = target: Fuc(a1-2)[GalNAc(a1-3)]Gal(b1-3)GalNAc(a1-3)[Fuc(a1-2)]Gal(b1-4)GlcNAc
# In short: as §1
# [27] = target: Fuc(a1-2)[GalNAc(a1-3)]Gal(b1-3)GalNAc(b1-3)Gal(a1-4)Gal(b1-4)Glc
# In short: as §1
# [28] = target: Fuc(a1-2)[GalNAc(a1-3)]Gal(b1-3)GlcNAc
# In short: as §1
# [29] = target: Fuc(a1-2)[GalNAc(a1-3)]Gal(b1-3)GlcNAc(b1-2)Man(a1-3)[Fuc(a1-2)[GalNAc(a1-3)]Gal(b1-3)GlcNAc(b1-2)Man(a1-6)]Man(b1-4)GlcNAc(b1-4)GlcNAc
# In short: as §1
# [30] = target: Fuc(a1-2)[GalNAc(a1-3)]Gal(b1-3)GlcNAc(b1-2)Man(a1-3)[Fuc(a1-2)[GalNAc(a1-3)]Gal(b1-3)GlcNAc(b1-2)Man(a1-6)]Man(b1-4)GlcNAc(b1-4)[Fuc(a1-6)]GlcNAc
# In short: as §1
# [31] = target: Fuc(a1-2)[GalNAc(a1-3)]Gal(b1-3)GlcNAc(b1-3)GalNAc
# In short: as §1
# [32] = target: Fuc(a1-2)[GalNAc(a1-3)]Gal(b1-3)GlcNAc(b1-6)GalNAc
# In short: as §1
# [33] = target: Fuc(a1-2)[GalNAc(a1-3)]Gal(b1-4)Glc
# In short: as §1
# [34] = target: Fuc(a1-2)[GalNAc(a1-3)]Gal(b1-4)GlcNAc
# In short: as §1
# [35] = target: Fuc(a1-2)[GalNAc(a1-3)]Gal(b1-4)GlcNAc(b1-2)Man
# In short: as §1
# [36] = target: Fuc(a1-2)[GalNAc(a1-3)]Gal(b1-4)GlcNAc(b1-2)Man(a1-3)[Fuc(a1-2)[GalNAc(a1-3)]Gal(b1-4)GlcNAc(b1-2)Man(a1-6)]Man(b1-4)GlcNAc(b1-4)GlcNAc
# In short: as §1
# [37] = target: Fuc(a1-2)[GalNAc(a1-3)]Gal(b1-4)GlcNAc(b1-2)Man(a1-3)[Fuc(a1-2)[GalNAc(a1-3)]Gal(b1-4)GlcNAc(b1-2)Man(a1-6)]Man(b1-4)GlcNAc(b1-4)[Fuc(a1-6)]GlcNAc
# In short: as §1
# [38] = target: Fuc(a1-2)[GalNAc(a1-3)]Gal(b1-4)GlcNAc(b1-3)Gal(b1-4)GlcNAc
# In short: as §1
# [39] = target: Fuc(a1-2)[GalNAc(a1-3)]Gal(b1-4)GlcNAc(b1-3)Gal(b1-4)GlcNAc(b1-3)Gal(b1-4)GlcNAc
# In short: as §1
# [40] = target: Fuc(a1-2)[GalNAc(a1-3)]Gal(b1-4)GlcNAc(b1-3)GalNAc
# In short: as §1
# [41] = target: Fuc(a1-2)[GalNAc(a1-3)]Gal(b1-4)GlcNAc(b1-3)[Fuc(a1-2)[GalNAc(a1-3)]Gal(b1-4)GlcNAc(b1-6)]GalNAc
# In short: as §1
# [42] = target: Fuc(a1-2)[GalNAc(a1-3)]Gal(b1-4)GlcNAc(b1-6)GalNAc
# In short: as §1
# [43] = target: Fuc(a1-2)[GalNAc(a1-3)]Gal(b1-4)[Fuc(a1-3)]GlcNAc
# In short: as §1
# [44] = target: Fuc(a1-2)[GalNAc(a1-3)]Gal(b1-4)[Fuc(a1-3)]GlcNAc(b1-3)GalNAc
# In short: as §1
# [45] = target: Fuc(a1-2)[GalNAc(a1-4)]Gal(b1-4)GlcNAc
# In short: as §1
binder,measurement,setting,value
"CcfD (Bacteroides vulgatus), A6KYX8 (protein) MKYKNYFKSIIYLALGAFTLGSCEDFLDRQEDEKLTFDKIWESRNTTQQYWLNAMSFLPNENGSLQGDTEPYLGASDECTIAYDRQYRWINFGTWNPSQVPYYKMDHYYKGIRECNIFLQNVYKCSDPLVTKDQLDEWYWQTRFARAYYYFLMMRDYGPVFLLGDDLLDFTASTEELYRPRNTWDQCVNYVVSEMTQCAESGVVLQQSDLPAAKWGLATVGTCHAVISRLLLYSARPLFNGNKLYSTVKNPDAPDFPELSGVKLFPELDNTKWQKAAEAAKKLIDNPCYELYRAGNDNPYEDYYGVTHETWNKELIWTDRYNGLFSWGVGTVPTGVAGTAYGAVGPTQALVDAYAMNTGWYPITGYEADGTPIVEPLSGYELASELEKSSWIYPSGGWSNKADFEIEAPNMYKDREPRFYVTVFFGGNQWLHGNSATSISFAKGGNGNKSHDYPKSGYLCNRFYDHKLNSSEGQWGNITFPVFRLGEIYLNFIEAVLECKKNGVALDPSYEALAMEKWADLRKRAGLDPITSIYGQVSTEELIQLCRKERQIELAFERHRYFDTRTWMIATQTDNGKMYGMNTSCPLDAGMKGTETPDGFWERTAFETRVFQNKHYLYPFSQRELDRNKLLTQNYGW",glycan array binding signal (z-score),[1],0.603
same,glycan array binding signal (z-score),[2],-0.602
same,glycan array binding signal (z-score),[3],0.435
same,glycan array binding signal (z-score),[4],-0.114
same,glycan array binding signal (z-score),[5],-0.721
same,glycan array binding signal (z-score),[6],-0.729
same,glycan array binding signal (z-score),[7],-0.653
same,glycan array binding signal (z-score),[8],-0.421
same,glycan array binding signal (z-score),[9],3.23
same,glycan array binding signal (z-score),[10],-0.424
same,glycan array binding signal (z-score),[11],0.628
same,glycan array binding signal (z-score),[12],-0.876
same,glycan array binding signal (z-score),[13],-0.612
same,glycan array binding signal (z-score),[14],0.079
same,glycan array binding signal (z-score),[15],-0.282
same,glycan array binding signal (z-score),[16],-0.566
same,glycan array binding signal (z-score),[17],-0.683
same,glycan array binding signal (z-score),[18],0.414
same,glycan array binding signal (z-score),[19],-1.06
same,glycan array binding signal (z-score),[20],0.176
same,glycan array binding signal (z-score),[21],0.191
same,glycan array binding signal (z-score),[22],0.89
same,glycan array binding signal (z-score),[23],0.465
same,glycan array binding signal (z-score),[24],-0.495
same,glycan array binding signal (z-score),[25],-0.205
same,glycan array binding signal (z-score),[26],1.49
same,glycan array binding signal (z-score),[27],-0.398
same,glycan array binding signal (z-score),[28],0.201
same,glycan array binding signal (z-score),[29],-0.622
same,glycan array binding signal (z-score),[30],-0.607
same,glycan array binding signal (z-score),[31],0.404
same,glycan array binding signal (z-score),[32],-0.82
same,glycan array binding signal (z-score),[33],-0.353
same,glycan array binding signal (z-score),[34],-0.439
same,glycan array binding signal (z-score),[35],0.054
same,glycan array binding signal (z-score),[36],4.4
same,glycan array binding signal (z-score),[37],-0.266
same,glycan array binding signal (z-score),[38],0.166
same,glycan array binding signal (z-score),[39],-0.825
same,glycan array binding signal (z-score),[40],0.155
same,glycan array binding signal (z-score),[41],0.323
same,glycan array binding signal (z-score),[42],-0.871
same,glycan array binding signal (z-score),[43],0.648
same,glycan array binding signal (z-score),[44],0.46
same,glycan array binding signal (z-score),[45],-1.07

# A different layout for some results above.
binder | measurement | setting | value
CcfD (Bacteroides vulgatus), A6KYX8 (protein) MKYKNYFKSIIYLALGAFTLGSCEDFLDRQEDEKLTFDKIWESRNTTQQYWLNAMSFLPNENGSLQGDTEPYLGASDECTIAYDRQYRWINFGTWNPSQVPYYKMDHYYKGIRECNIFLQNVYKCSDPLVTKDQLDEWYWQTRFARAYYYFLMMRDYGPVFLLGDDLLDFTASTEELYRPRNTWDQCVNYVVSEMTQCAESGVVLQQSDLPAAKWGLATVGTCHAVISRLLLYSARPLFNGNKLYSTVKNPDAPDFPELSGVKLFPELDNTKWQKAAEAAKKLIDNPCYELYRAGNDNPYEDYYGVTHETWNKELIWTDRYNGLFSWGVGTVPTGVAGTAYGAVGPTQALVDAYAMNTGWYPITGYEADGTPIVEPLSGYELASELEKSSWIYPSGGWSNKADFEIEAPNMYKDREPRFYVTVFFGGNQWLHGNSATSISFAKGGNGNKSHDYPKSGYLCNRFYDHKLNSSEGQWGNITFPVFRLGEIYLNFIEAVLECKKNGVALDPSYEALAMEKWADLRKRAGLDPITSIYGQVSTEELIQLCRKERQIELAFERHRYFDTRTWMIATQTDNGKMYGMNTSCPLDAGMKGTETPDGFWERTAFETRVFQNKHYLYPFSQRELDRNKLLTQNYGW | glycan array binding signal (z-score) | [19] | -1.06
same | glycan array binding signal (z-score) | [29] | -0.622
